Data: PubChem BioAssay AID2685 (National Center for Advancing Translational Sciences (NCATS), 2010)
The list shows a part of the results. Shown are side measurements of this screen, not its main read-out; they come without a call. Most of these compounds were active or inconclusive in the main read-out, so they are no random draw. Potencies come from curve fits of mixed quality, noted in brackets.

Assay: qHTS Assay for Lipid Storage Modulators in Drosophila S3 Cells;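 on cell number change: cells counted by Cell Tracker Red CMTPX staining in the red channel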
Conditions: BODIPY lipid droplet fluorescence, 18-24 h; for cell number change: measured here: cell count max response, cells fed with added oleic acid
Method in brief: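 Drosophila S3 cells loaded with oleic acid (400 uM, as added) and compounds at several concentrations; lipid droplets imaged by 488-nm laser-scanning cytometry, 500–530 nm intensity and object ratio to cell channel. Percent activity normalized to 20 uM Triacsin C.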

[1] = measured here: lipid fluorescence (Fed channel) AC50, cells fed with added oleic acid
[2] = measured here: cell number channel AC50, cells fed with added oleic acid

Compound | cell number change [%] | AC50 [1] | AC50 [2]
CCc1c(O)nc(SCc2ccc(F)cc2)[nH]c1=O | 18.5 | 8.2 µM [rising, partial curve, poor fit] | –
Cc1onc(-c2ccccc2Cl)c1-c1nc(-c2ccncc2)no1 | – | 5.8 µM [rising, partial curve] | –
Cc1cc(C(=O)NCc2ccc(S(N)(=O)=O)cc2)ccc1[N+](=O)[O-] | 11.5 | 6.51 µM [falling, single point] | –
CCN(CC)CCn1c2ccccc2c2cnc(N=CN(C)C)c(C#N)c21 | -17.3 | – | –
O=C(NC1CCN(Cc2ccccc2)CC1)C1CCCN(S(=O)(=O)c2cccc3nonc23)C1 (centres undefined) | -4.83 | – | –
CCOc1cc(/C=N/NC(=O)C(=O)N2CCCC2)ccc1O | 7.77 | – | 5.17 µM [falling, single point]
COc1ccc(C(=O)NCC(=O)N2CCC(Cc3ccccc3)CC2)cc1OC | 23.7 | – | –
CCOc1ccc(C(=O)N(CC(=O)Nc2cccc(C)c2C)CC2CCCO2)cc1OC (centres undefined) | -20.2 | 0.461 µM [falling, partial curve] | –
COc1ccc(C(=O)NCCCc2nc3ccccc3n2Cc2ccccc2C)cc1OC | 9.5 | 1.64 µM [rising, partial curve] | –
Cc1sc2ncnc(SCC(=O)N3CCCC3=O)c2c1C | – | – | 6.51 µM [rising, single point]
Cc1ccc(S(=O)(=O)NCc2cn3c(C)csc3n2)cc1 | – | – | 2.31 µM [rising, single point]
Cc1nc2ccc(S(=O)(=O)NCC(=O)O)cc2s1 | -4.98 | 25.9 µM [falling, partial curve] | –
O=C(NCCc1ccc(Cl)cc1)c1n[nH]c2ccccc12 | – | 6.51 µM [rising, single point] | –
CCN(CC)c1ccc(/C=C2\SC(=O)N(C(C)C)C2=O)o1 | -58 | 8.2 µM [falling, partial curve] | 16.4 µM [falling, partial curve]
Cc1cccc(NC(=O)c2ccc(NCC3CCCO3)c([N+](=O)[O-])c2)c1 (centres undefined) | 22.5 | 32.6 µM [falling, single point] | –
Fc1ccccc1Cn1cc(C(=S)N2CCOCC2)c2ccccc21 | -6.05 | – | –
CCC(C)NC(=O)C1CCCCN1S(=O)(=O)c1ccc(F)cc1 (centres undefined) | 7.37 | – | 0.651 µM [falling, single point]
CS(=O)(=O)C1=NSC2=NC(=O)/C(=C\c3ccc(OS(=O)(=O)c4ccccc4)cc3)C(=N)N21 | 14.5 | 23.1 µM [rising, single point] | –
CCOC(=O)c1cnc2c(C(=O)OC)cccc2c1NCc1ccco1 | – | 1.84 µM [rising, partial curve] | –
Cc1cccc(OCc2nc(C#N)c(NCc3ccc4c(c3)OCO4)o2)c1 | 96.9 | 6.51 µM [rising, partial curve] | 0.58 µM [rising, full curve]
CCN(C(=O)COC(=O)c1nc2nc(C)cc(C)n2n1)C1CCS(=O)(=O)C1 (centres undefined) | 24.5 | 18.4 µM [rising, single point] | –
CC1CCCCC1NS(=O)(=O)c1ccc2c(c1)CCC(=O)N2 (centres undefined) | 17.5 | 6.51 µM [rising, single point] | –

Three entries from above, with each value named.
CCN(CC)c1ccc(/C=C2\SC(=O)N(C(C)C)C2=O)o1
  cell number change [%]: -58; AC50 [1]: 8.2 µM [falling, partial curve]; AC50 [2]: 16.4 µM [falling, partial curve]
Cc1cccc(NC(=O)c2ccc(NCC3CCCO3)c([N+](=O)[O-])c2)c1 (centres undefined)
  cell number change [%]: 22.5; AC50 [1]: 32.6 µM [falling, single point]
Fc1ccccc1Cn1cc(C(=S)N2CCOCC2)c2ccccc21
  cell number change [%]: -6.05

(more compounds)

Compound | cell number change [%] | AC50 [1] | AC50 [2]
Cc1nc(NS(=O)(=O)c2ccccc2C)c2c3c(sc2n1)CCC3 | -5.86 | – | –
Cc1oc2ccc(OC(=O)COc3c(F)c(F)c(F)c(F)c3F)cc2c1C(=O)OC(C)C | -16.3 | 29.1 µM [rising, single point] | –
CC(NC(=O)c1ccco1)C(=O)N1CCN(c2ccccc2)CC1 (centres undefined) | 10.3 | – | –
CCn1cc(CCCC(=O)NCc2cccc(OC)c2)c2ccccc21 | -24.8 | 29.1 µM [falling, single point] | –
COc1ccc(C(=O)NCc2nnc(SCC(=O)Nc3nc4ccccc4s3)o2)cc1OC | 14.5 | 6.51 µM [falling, partial curve] | –
O=C(c1ccc(S(=O)(=O)Nc2ccccc2)cc1)N1CCCC1 | -8.84 | – | –
O=C(COC(=O)CN1C(=O)C2CCCCC2C1=O)Nc1ccc(S(=O)(=O)N2CCOCC2)cc1 (centres undefined) | 8.46 | 29.1 µM [falling, single point] | –
NC(=O)C1(N2CCCCC2)CCN(S(=O)(=O)c2cc(Cl)ccc2Cl)CC1 | 11 | 0.651 µM [falling, full curve] | 0.164 µM [falling, full curve]
COc1cc(N2CCCC2)ccc1C=O | 41.5 | 0.00461 µM [rising, full curve, poor fit] | 13 µM [rising, partial curve, poor fit]
FC(F)Sc1ccc(N=C2NN=C(c3ccc4c(c3)OCCO4)CS2)cc1 | 6.67 | – | –
CCOc1ccc(OCC)c(NC(=O)CC2Oc3ccccc3NC2=O)c1 (centres undefined) | 13.5 | 18.4 µM [rising, single point] | –
CC[n+]1c(/C=C/C=C/N(C(C)=O)c2ccccc2)sc2cc(OC)ccc21 | -75.6 | 14.6 µM [falling, partial curve] | 6.51 µM [rising, single point]
CCC(C)Sc1ccc([C@H]2N[C@@](C)(C(=O)OC)[C@H]3C(=O)N(CC)C(=O)[C@@H]23)cc1 (some centres undefined) | 12 | 7.31 µM [rising, partial curve, poor fit] | –
CCOc1ccc(C(=O)NC(=S)Nc2ccc(N3CCOCC3)c(Cl)c2)cc1[N+](=O)[O-] | 11.2 | 7.31 µM [rising, single point] | –
COc1cccc(CNC(=O)CCNS(=O)(=O)c2ccc(C)cc2)c1 | – | – | 2.91 µM [falling, single point]
Cc1cc(C(=O)N(NC(=O)C(C)C)c2ccccc2)cs1 | -29.4 | 10.3 µM [falling, partial curve] | –
COc1ccc(CNC(=O)CN(Cc2ccc(F)cc2)C(=O)CCC(=O)Nc2nccs2)cc1 | 20.3 | 0.58 µM [falling, single point] | –
CCC(=O)N1CCC(NC(=O)Nc2ccc(OC(F)(F)F)cc2)CC1 | -16.1 | 0.13 µM [falling, full curve, poor fit] | –
Cc1ccccc1C(=O)NNC(=O)Cc1cccc2ccccc12 | 56.7 | – | 29.1 µM [rising, partial curve]
Cc1ccc(OCC(=O)Nc2ccccc2F)cc1C | 6.68 | 0.00411 µM [rising, full curve, poor fit] | –
O=C(NCCCN1CCOCC1)c1ccc2c(c1)N(Cc1c(F)cccc1Cl)C(=O)CS2 | -28.6 | – | 1.3 µM [falling, full curve, poor fit]
CCOc1ccc(/C=N/Nc2ccccc2)cc1 | -19.6 | 0.82 µM [falling, partial curve] | –

Compound | cell number change [%] | AC50 [1] | AC50 [2]
O=C(NCCCn1ccnc1)/C(=C/c1ccco1)NC(=O)c1ccco1 | -20.5 | 2.06 µM [falling, full curve] | –
O=C(Nc1ccccn1)c1cc(-c2cccnc2)nc2ccc(Br)cc12 | -36.4 | 4.61 µM [falling, partial curve] | 4.11 µM [falling, full curve, poor fit]
O=[N+]([O-])c1cnc2ccccn12 | 49.3 | 29.1 µM [rising, single point] | 20.6 µM [rising, single point]
CCN(CC(=O)Nc1ccc(C(=O)OC)cc1)Cc1ccccc1 | 12.1 | 6.51 µM [rising, single point] | –
CCOc1ccc(C(=O)N2CCc3cc(OC)c(OC)cc3C2)cc1OCC | -9.29 | 0.411 µM [falling, full curve, poor fit] | 0.291 µM [falling, full curve, poor fit]
CCOc1cc(/C=N/Nc2nnc(C)n2N)ccc1O | -61 | – | 25.9 µM [falling, single point]
COc1cccc(C(=O)Nc2nnc(CCS(=O)(=O)c3ccc(C)cc3)s2)c1 | 1.47 | – | –
Cc1nc(Nc2nc3ccccc3o2)nc2c1CCC2 | -14.3 | – | –
C/C(CC(=O)NC12CC3CC(CC(C3)C1)C2)=N\NC(=O)c1ccc(F)cc1 | -13.3 | – | –
COc1ccc(CCNC(=O)c2ccc(Cl)c(S(=O)(=O)N3CCCC3)c2)cc1 | 5.26 | – | –
O=C1Cc2ccccc2C(=O)N1OCc1ccc(Cl)cc1 | – | – | 0.82 µM [rising, single point]
Cn1c(SCC(=O)Nc2nccs2)nnc1C12CC3CC(CC(C3)C1)C2 | – | 6.51 µM [falling, single point] | –
CN1CCN(c2oc(COc3ccc(-c4ccccc4)cc3)nc2C#N)CC1 | -13.9 | 2.06 µM [rising, partial curve, poor fit] | –
CCC(C)Nc1nc(-c2cccc(OC)c2O)nc2ccccc12 (centres undefined) | -18.4 | 29.1 µM [falling, single point] | –
O=C(NCCCN1CCOCC1)c1ccc(Br)cc1 | 14.8 | 0.146 µM [rising, full curve, poor fit] | 0.00461 µM [rising, full curve, poor fit]
CCOc1ccc(CCNC(=O)CN2C(=O)NC3(CCCc4ccccc43)C2=O)cc1OCC (centres undefined) | -29.4 | 8.2 µM [falling, partial curve] | –
Cc1ccc(S(=O)(=O)NC(=NC2CCCCC2)c2ccc(Cl)cc2)cc1 | 5.04 | – | –
CCOc1ccc(N2C(=O)CC(Sc3nc(C)cc(C)c3C#N)C2=O)cc1 (centres undefined) | -3.12 | 1.84 µM [rising, partial curve] | –
C/C(=N\NC(=O)c1ccc(CSc2nc(C)cc(C)n2)cc1)c1ccco1 | 12.7 | – | –
Cc1sc2nc(N)sc2c1C | -0.281 | – | –
